Laboratory results from PubChem BioAssay AID504467 (National Center for Advancing Translational Sciences (NCATS), 2011).
About 7,700 (2.3%) of roughly 330,000 compounds were called active. Inconclusive results, whose numbers are uncertain, are shown with a selection of clear calls. Calls follow the shape of the dose curve; as a rule, active = well fitted inhibition curve with a large enough effect; inconclusive = small, poorly fitted or top-dose-only effect, or effect the other way; inactive = flat fitted curve, though single readings scatter. A potency beside an inconclusive call is a rough fit, not a confirmed value.

test: qHTS screen for small molecules that inhibit ELG1-dependent DNA repair in human embryonic kidney (HEK293T) cells expressing luciferase-tagged ELG1; details: HEK293T ELG1-luciferase reporter, luminescence, 16 h, DNA damage induced by 5-fluorouridine; activity change, negative = inhibition: at 46.1 µM (top of the series); also: nearly all actives have a fitted effect of over 55% in size
Outline: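 Quantitative HTS, concentration-response format. 2,000 cells/well co-treated with 5-fluorouridine and compound, 16 hr in 5% CO2 at 37 °C; ONE-Glo luminescence read after 30 min.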
% is scaled to controls: 0 for no effect and ±100 for the full control effect; potency is read from the fitted curve at half-maximal effect.

| SMILES | Potency | activity change, negative = inhibition |
| --- | --- | --- |
| CNc1ccc2nc3ccccc3[n+](C)c2c1 | active: 1.64 µM | – |
| O=C1NC(=O)C(=CN2CCc3ccccc32)C(=O)N1 | inconclusive: 23.1 µM [activator, single point] | – |
| CCC(=NC(C)c1ccccc1)c1c(O)n(C)c(=O)n(C)c1=O (stereo unspecified) | inconclusive: 9.2 µM [inhibitor, partial curve] | – |
| CNC(=O)CSc1nnc(-c2cc(C)cc(C)c2)o1 | inconclusive: 35.5 µM [activator, single point] | – |
| CCCCCCC(=O)N/N=C/c1c(O)n(CCc2ccccc2)c(=O)[nH]c1=O | inconclusive: 6.51 µM [inhibitor, full curve, poor fit] | – |
| Cc1nc2cc(F)ccc2n1C1CCN(Cc2nnnn2CCc2ccccc2)CC1 | inconclusive: 25.9 µM [inhibitor, partial curve] | – |
| CCC(C)(C)n1nnnc1CN1CCC(n2c(C)nc3cc(C(F)(F)F)ccc32)CC1 | – | inactive: -9.68% |
| N#CC(C#N)=Cc1ccc(O)c(O)c1 | – | inactive: 7.82% |
| O=C1NC(=O)C(=Cc2ccc(-c3ccc(S(=O)(=O)N4CCOCC4)cc3)o2)C(=O)N1 | inconclusive: 3.26 µM [activator, partial curve, poor fit] | – |
| Cc1ccc(/C=C/C(=O)C2C(=O)c3ccccc3C2=O)cc1 | inconclusive: 1.46 µM [activator, full curve] | – |
| Cc1cccc(N2CCN(C(=O)CCS(=O)(=O)c3ccc4c(c3)oc(=O)n4C)CC2)c1C | inconclusive: 16.4 µM [inhibitor, single point] | – |
| Cc1cc(C)cc(N2C(=O)NC(=O)/C(=C/c3cccn3-c3ccc(Cl)cc3)C2=O)c1 | inconclusive: 6.51 µM [inhibitor, single point] | – |
| Cc1ccsc1-c1nc(CSCC(=O)N2CCC3(CC2)OCCO3)c(C)o1 | – | inactive: -15.9% |
| COc1ccc(C2SCC(=O)Nc3c2c(=O)[nH]n3C2CCCCCC2)cc1OC (stereo unspecified) | inconclusive: 11.6 µM [inhibitor, partial curve, poor fit] | – |
| COc1ccc(CN2CCN(C(=O)COc3ccc4ccccc4c3)CC2)c(OC)c1 | inconclusive: 23.1 µM [inhibitor, partial curve, poor fit] | – |
| C=CCn1c(O)c(C=NC2CCN(Cc3ccccc3)CC2)c(=O)[nH]c1=O | – | inactive: -16.9% |
| O=C(c1ccc(F)c([N+](=O)[O-])c1)N1CC2CC(C1)c1cccc(=O)n1C2 (stereo unspecified) | – | inactive: 3.67% |
| Cc1ccc(-c2nn(Cc3ccccc3)cc2C=O)cc1C | inconclusive: 10.3 µM [activator, partial curve] | – |
| CCn1c(NN=O)nc2ccccc21 | – | inactive: 0% |
| Cc1ccc(/C=C2\C(=O)NC(=O)N(Cc3ccccc3Cl)C2=O)o1 | inconclusive: 20.6 µM [activator, partial curve] | – |
| O=C1CN=C(c2ccc[nH]2)c2cc(Cl)ccc2N1 | active: 8.2 µM | – |
| CN1/C(=C\C=C2C(=O)NC(=O)NC2=O)C(C)(C)c2ccccc21 | inconclusive: 32.6 µM [inhibitor, single point] | – |
| COC(=O)C1=C(c2cccc(C#N)c2)C[C@@H]2CC[C@H]1N2C(=O)N1CCc2cc(OC)c(OC)cc2C1 | inconclusive: 18.3 µM [inhibitor, single point] | – |
| O=c1[nH]c(=S)[nH]c(O)c1N=Nc1cccc(S(=O)(=O)N2CCOCC2)c1 | inconclusive: 1.64 µM [inhibitor, partial curve] | – |

| SMILES | Potency | activity change, negative = inhibition |
| --- | --- | --- |
| O=c1[nH]c(O)c(N=Nc2ccc([N+](=O)[O-])cc2)c(=O)[nH]1 | inconclusive: 0.58 µM [inhibitor, partial curve] | – |
| O=C(C(=O)N1CCOCC1)c1cn(Cc2ccccc2)c2ccccc12 | inconclusive: 29.1 µM [activator, single point] | – |
| CCOc1ccccc1Oc1coc2cc(OC(=O)c3ccco3)ccc2c1=O | inconclusive: 29.1 µM [activator, single point] | – |
| Cc1cc(OCC(=O)N2CCC(C(=O)O)CC2)c2c3c(c(=O)oc2c1)CCC3 | – | inactive: 20.6% |
| O=C1/C(=C/c2cccc([N+](=O)[O-])c2)N2CCC1CC2 | inconclusive: 16.4 µM [activator, single point] | – |
| O=C(CN1CC=C(c2ccccc2)CC1)NC(=O)NCc1ccccc1 | – | inactive: 16.6% |
| Oc1ccccc1C1NCc2ccccc2-n2cccc21 (stereo unspecified) | – | inactive: -3.58% |
| CNC(C)Cc1ccccc1 (stereo unspecified) | – | inactive: 15.1% |
| CC[C@H]1C2C[C@H]3[C@@H]4N(C)c5ccccc5C45C[C@H](C2[C@H]5O)N3[C@@H]1O (stereo partly specified) | – | inactive: 7.97% |
| COc1cccc(N2C(=O)NC(=O)/C(=C/c3ccc4c(c3)Cc3ccccc3-4)C2=O)c1 | inconclusive: 18.3 µM [activator, single point] | – |
| Cn1c(O)c(C=NC2CCN(Cc3ccccc3)CC2)c(=O)n(C)c1=O | – | inactive: -15.2% |
| O=C(N/N=C/c1cc(Br)c(Br)s1)c1ccncc1 | inconclusive: 2.91 µM [inhibitor, single point] | – |
| COc1ccc(CN2C(=O)NC(=O)/C(=C\c3cc(OC)c(OC)c(OC)c3)C2=O)cc1 | inconclusive: 6.51 µM [inhibitor, single point] | – |
| CCc1ccc(CNCCc2c[nH]c3ccccc23)cc1 | – | inactive: -17.1% |
| COc1ccc(OC)c(CN2CCN(C(=O)COc3cccc(C)c3)CC2)c1 | – | inactive: -8.39% |
| CCOC(=O)c1c(C)n(Cc2ccc3c(c2)OCO3)c2ccc(O)cc12 | inconclusive: 20.6 µM [activator, partial curve, poor fit] | – |
| CCCCCCn1c(=O)c(C(=O)Nc2ncccc2O)c(O)c2ccccc21 | inconclusive: 35.5 µM [inhibitor, single point] | – |
| CCc1cc2c(=O)n(C(C)C(=O)OC3CCCCC3)cnc2s1 (stereo unspecified) | inconclusive: 13 µM [activator, partial curve] | – |
| Cc1cccc(N2C(=O)NC(=O)/C(=C\c3ccc(N4CCOCC4)cc3)C2=O)c1 | – | inactive: -16.3% |
| CCOP(=S)(OCC)Oc1cc(C)oc(=O)c1 | inconclusive: 2.91 µM [inhibitor, partial curve, poor fit] | – |
| CCCCn1c(O)c(C(CC)=NCc2ccc(F)cc2)c(=O)[nH]c1=O | inconclusive: 18.4 µM [inhibitor, single point] | – |
| CC(C)OC(=O)c1c(N)n(CC2CCCO2)c2nc3ccccc3nc12 (stereo unspecified) | inconclusive: 14.6 µM [inhibitor, partial curve] | – |
| Cc1ccsc1/C=C1\C(=O)NC(=S)N(C)C1=O | inconclusive: 20.6 µM [activator, partial curve, poor fit] | – |
| Cc1ccc(C)c(N2CCN(C(=O)CCNS(=O)(=O)c3ccc4c(c3)oc(=O)n4C)CC2)c1 | inconclusive: 29.1 µM [inhibitor, single point] | – |

| SMILES | Potency | activity change, negative = inhibition |
| --- | --- | --- |
| Nc1c(C(=O)NCc2ccco2)c2nc3ccccc3nc2n1CCN1CCCCC1 | inconclusive: 23.1 µM [inhibitor, partial curve, poor fit] | – |
| COc1ccc(NP(=O)(Oc2ccc(Cl)cc2)Oc2ccc(Cl)cc2)cc1OC | inconclusive: 29.1 µM [inhibitor, single point] | – |
| C(#CCN1CCCCC1)COCc1ccccc1 | inconclusive: 18.3 µM [activator, single point] | – |
| O=[N+]([O-])c1ccc(N2CCCCCC2)c2ncccc12 | – | inactive: -0.878% |
| Cn1cccc1/C=C1\C(=O)NC(=O)N(Cc2ccccc2)C1=O | inconclusive: 29.1 µM [activator, partial curve, poor fit] | – |
| Cc1ccc(OCC(=O)N2CCCC(N3CCN(c4ccc(F)cc4)CC3)C2)cc1 (stereo unspecified) | – | inactive: -3.28% |
| O=C(COC(=O)c1ccc(O)cc1)Nc1ccc(Cl)cc1C(=O)c1ccccc1 | inconclusive: 29.1 µM [inhibitor, single point] | – |
| CC(O)(CS(=O)(=O)c1ccccc1)C(=O)Nc1cccc(C(F)(F)F)c1 (stereo unspecified) | – | inactive: 6.91% |
| CCOC(=O)c1ccc(N2C(=O)CC(N3CCC(O)(c4ccc(Br)cc4)CC3)C2=O)cc1 (stereo unspecified) | inconclusive: 2.91 µM [inhibitor, partial curve] | – |
| CCCCCSc1cc(OC)c(CCN)cc1OC | – | inactive: 16.5% |
| NCCc1nc2ccccc2s1 | – | inactive: 5.68% |
| CC1=C(C(=O)O)N2C(=O)C(NC(=O)Cc3ccccc3)C2SC1 (stereo unspecified) | – | inactive: -0.1% |
| Cn1c(O)c(C(=Nc2ccc(F)cc2)c2ccccc2Cl)c(=O)n(C)c1=O | inconclusive: 20.6 µM [inhibitor, partial curve] | – |
| CN=C(SCc1cc2c(cc1Cl)OCO2)c1c(O)n(C)c(=O)n(C)c1=O | inconclusive: 18.4 µM [inhibitor, partial curve, poor fit] | – |
| COc1ccccc1-n1c(-c2ccccc2Cl)nc2ccccc2c1=O | – | inactive: 13.2% |
| ClC1C(Cl)C(Cl)C(Cl)C(Cl)C1Cl (stereo unspecified) | inconclusive: 10 µM [activator, partial curve, poor fit] | – |
| O=C1NC(=O)N(c2ccccc2)C(=O)/C1=C/c1coc2ccc(O)cc2c1=O | inconclusive: 20.6 µM [activator, single point] | – |
| NP(=O)(OCCCc1ccccc1)Oc1ccccc1Cl (stereo unspecified) | inconclusive: 29.1 µM [activator, single point] | – |
| O=C(c1cnn2c(C(F)(F)F)cc(-c3ccccc3)nc12)N1CCC2(CC1)OCCO2 | inconclusive: 25.9 µM [inhibitor, partial curve, poor fit] | – |
| CS(=O)(=O)NNP(=O)(NNS(C)(=O)=O)NC(=O)c1ccc(Br)cc1 | – | inactive: -3.64% |
| COc1ccc(NC(c2ccccc2F)P(=O)(Oc2ccccc2)Oc2ccccc2)cc1 (stereo unspecified) | active: 18.4 µM | – |
| Cc1ccc(C(=O)NC(O)C(Cl)(Cl)Cl)cc1 (stereo unspecified) | – | inactive: 12.4% |
| COc1cc(CN=C(C)c2c(O)n(C)c(=O)n(C)c2=O)cc(OC)c1 | active: 13 µM | – |

Already shown: entries from further up.

| SMILES | Potency | activity change, negative = inhibition |
| --- | --- | --- |
| COc1ccc(NP(=O)(Oc2ccc(Cl)cc2)Oc2ccc(Cl)cc2)cc1OC | inconclusive: 29.1 µM [inhibitor, single point] | – |
| C(#CCN1CCCCC1)COCc1ccccc1 | inconclusive: 18.3 µM [activator, single point] | – |
| O=[N+]([O-])c1ccc(N2CCCCCC2)c2ncccc12 | – | inactive: -0.878% |
| Cn1cccc1/C=C1\C(=O)NC(=O)N(Cc2ccccc2)C1=O | inconclusive: 29.1 µM [activator, partial curve, poor fit] | – |
| Cc1ccc(OCC(=O)N2CCCC(N3CCN(c4ccc(F)cc4)CC3)C2)cc1 (stereo unspecified) | – | inactive: -3.28% |
| O=C(COC(=O)c1ccc(O)cc1)Nc1ccc(Cl)cc1C(=O)c1ccccc1 | inconclusive: 29.1 µM [inhibitor, single point] | – |
| CC(O)(CS(=O)(=O)c1ccccc1)C(=O)Nc1cccc(C(F)(F)F)c1 (stereo unspecified) | – | inactive: 6.91% |
| CCOC(=O)c1ccc(N2C(=O)CC(N3CCC(O)(c4ccc(Br)cc4)CC3)C2=O)cc1 (stereo unspecified) | inconclusive: 2.91 µM [inhibitor, partial curve] | – |
| CCCCCSc1cc(OC)c(CCN)cc1OC | – | inactive: 16.5% |
| NCCc1nc2ccccc2s1 | – | inactive: 5.68% |
| CC1=C(C(=O)O)N2C(=O)C(NC(=O)Cc3ccccc3)C2SC1 (stereo unspecified) | – | inactive: -0.1% |
| Cn1c(O)c(C(=Nc2ccc(F)cc2)c2ccccc2Cl)c(=O)n(C)c1=O | inconclusive: 20.6 µM [inhibitor, partial curve] | – |
| CN=C(SCc1cc2c(cc1Cl)OCO2)c1c(O)n(C)c(=O)n(C)c1=O | inconclusive: 18.4 µM [inhibitor, partial curve, poor fit] | – |
| COc1ccccc1-n1c(-c2ccccc2Cl)nc2ccccc2c1=O | – | inactive: 13.2% |
| ClC1C(Cl)C(Cl)C(Cl)C(Cl)C1Cl (stereo unspecified) | inconclusive: 10 µM [activator, partial curve, poor fit] | – |
| O=C1NC(=O)N(c2ccccc2)C(=O)/C1=C/c1coc2ccc(O)cc2c1=O | inconclusive: 20.6 µM [activator, single point] | – |
| NP(=O)(OCCCc1ccccc1)Oc1ccccc1Cl (stereo unspecified) | inconclusive: 29.1 µM [activator, single point] | – |
| O=C(c1cnn2c(C(F)(F)F)cc(-c3ccccc3)nc12)N1CCC2(CC1)OCCO2 | inconclusive: 25.9 µM [inhibitor, partial curve, poor fit] | – |
| CS(=O)(=O)NNP(=O)(NNS(C)(=O)=O)NC(=O)c1ccc(Br)cc1 | – | inactive: -3.64% |
| COc1ccc(NC(c2ccccc2F)P(=O)(Oc2ccccc2)Oc2ccccc2)cc1 (stereo unspecified) | active: 18.4 µM | – |
